# Test results as given in the supplement of paper PMC10849652.
# Amino acid sequences for entries named in this document (tags omitted). A change or cut given only in a name is not applied to a line headed by its entry.
# UniProt Q14999: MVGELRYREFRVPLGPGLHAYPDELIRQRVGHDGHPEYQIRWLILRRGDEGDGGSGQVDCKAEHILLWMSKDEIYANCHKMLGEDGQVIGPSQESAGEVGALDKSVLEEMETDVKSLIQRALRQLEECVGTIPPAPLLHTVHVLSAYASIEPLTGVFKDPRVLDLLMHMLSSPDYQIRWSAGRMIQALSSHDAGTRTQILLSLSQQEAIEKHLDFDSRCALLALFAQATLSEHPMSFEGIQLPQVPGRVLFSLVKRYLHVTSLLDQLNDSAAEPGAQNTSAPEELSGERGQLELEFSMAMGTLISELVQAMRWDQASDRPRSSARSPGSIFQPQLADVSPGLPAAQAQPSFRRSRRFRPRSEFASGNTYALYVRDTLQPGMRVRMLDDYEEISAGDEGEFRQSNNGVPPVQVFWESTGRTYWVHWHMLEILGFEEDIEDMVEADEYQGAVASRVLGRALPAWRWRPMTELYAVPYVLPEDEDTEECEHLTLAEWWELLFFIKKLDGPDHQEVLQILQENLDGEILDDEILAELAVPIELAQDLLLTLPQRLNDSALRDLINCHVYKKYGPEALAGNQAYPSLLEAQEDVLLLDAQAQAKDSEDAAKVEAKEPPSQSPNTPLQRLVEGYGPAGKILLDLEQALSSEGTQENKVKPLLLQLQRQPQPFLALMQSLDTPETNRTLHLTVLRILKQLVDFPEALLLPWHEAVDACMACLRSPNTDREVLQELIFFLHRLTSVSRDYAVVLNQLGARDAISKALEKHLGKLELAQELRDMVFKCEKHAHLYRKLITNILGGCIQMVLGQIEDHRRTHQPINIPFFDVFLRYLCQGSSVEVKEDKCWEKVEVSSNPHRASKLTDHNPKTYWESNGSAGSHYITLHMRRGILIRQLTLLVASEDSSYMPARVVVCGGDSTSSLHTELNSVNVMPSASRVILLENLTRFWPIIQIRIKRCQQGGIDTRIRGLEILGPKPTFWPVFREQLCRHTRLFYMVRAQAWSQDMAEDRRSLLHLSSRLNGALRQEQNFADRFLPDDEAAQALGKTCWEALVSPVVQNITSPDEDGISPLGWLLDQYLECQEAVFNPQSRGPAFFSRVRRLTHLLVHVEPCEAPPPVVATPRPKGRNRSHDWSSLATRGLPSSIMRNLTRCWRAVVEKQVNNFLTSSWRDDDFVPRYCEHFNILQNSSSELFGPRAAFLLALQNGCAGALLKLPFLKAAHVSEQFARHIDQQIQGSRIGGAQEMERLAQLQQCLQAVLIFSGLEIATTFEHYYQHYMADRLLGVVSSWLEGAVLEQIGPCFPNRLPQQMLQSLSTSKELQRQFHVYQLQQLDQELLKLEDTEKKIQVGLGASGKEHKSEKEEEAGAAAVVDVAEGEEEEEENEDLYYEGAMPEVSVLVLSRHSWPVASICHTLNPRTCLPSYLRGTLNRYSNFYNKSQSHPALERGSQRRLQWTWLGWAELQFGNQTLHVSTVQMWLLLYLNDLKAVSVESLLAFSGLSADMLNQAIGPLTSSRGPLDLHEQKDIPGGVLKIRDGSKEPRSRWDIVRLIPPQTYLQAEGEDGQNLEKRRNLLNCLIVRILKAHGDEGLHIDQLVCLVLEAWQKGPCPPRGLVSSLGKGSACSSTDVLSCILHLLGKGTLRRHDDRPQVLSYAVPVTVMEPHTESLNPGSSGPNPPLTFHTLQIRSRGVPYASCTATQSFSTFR
# UniProt P49711: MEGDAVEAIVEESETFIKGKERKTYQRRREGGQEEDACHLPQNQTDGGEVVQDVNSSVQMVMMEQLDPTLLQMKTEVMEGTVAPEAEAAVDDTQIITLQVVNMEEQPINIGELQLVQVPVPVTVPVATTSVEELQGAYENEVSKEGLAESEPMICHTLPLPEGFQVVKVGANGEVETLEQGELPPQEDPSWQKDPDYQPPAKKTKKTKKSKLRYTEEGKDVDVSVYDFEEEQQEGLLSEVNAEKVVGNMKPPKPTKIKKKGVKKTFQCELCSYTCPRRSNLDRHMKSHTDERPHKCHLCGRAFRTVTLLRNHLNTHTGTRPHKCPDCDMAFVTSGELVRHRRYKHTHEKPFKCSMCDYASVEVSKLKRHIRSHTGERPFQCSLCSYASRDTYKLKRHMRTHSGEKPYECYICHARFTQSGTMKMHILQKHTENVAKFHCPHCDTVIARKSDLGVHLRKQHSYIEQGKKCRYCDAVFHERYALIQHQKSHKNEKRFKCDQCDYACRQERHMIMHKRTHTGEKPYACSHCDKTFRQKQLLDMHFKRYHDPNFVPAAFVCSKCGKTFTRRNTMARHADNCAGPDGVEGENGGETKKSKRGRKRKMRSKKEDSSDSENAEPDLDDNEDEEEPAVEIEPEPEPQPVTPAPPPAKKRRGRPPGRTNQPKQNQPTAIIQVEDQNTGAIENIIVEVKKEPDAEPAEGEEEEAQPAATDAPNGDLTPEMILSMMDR
# UniProt Q9H0L4: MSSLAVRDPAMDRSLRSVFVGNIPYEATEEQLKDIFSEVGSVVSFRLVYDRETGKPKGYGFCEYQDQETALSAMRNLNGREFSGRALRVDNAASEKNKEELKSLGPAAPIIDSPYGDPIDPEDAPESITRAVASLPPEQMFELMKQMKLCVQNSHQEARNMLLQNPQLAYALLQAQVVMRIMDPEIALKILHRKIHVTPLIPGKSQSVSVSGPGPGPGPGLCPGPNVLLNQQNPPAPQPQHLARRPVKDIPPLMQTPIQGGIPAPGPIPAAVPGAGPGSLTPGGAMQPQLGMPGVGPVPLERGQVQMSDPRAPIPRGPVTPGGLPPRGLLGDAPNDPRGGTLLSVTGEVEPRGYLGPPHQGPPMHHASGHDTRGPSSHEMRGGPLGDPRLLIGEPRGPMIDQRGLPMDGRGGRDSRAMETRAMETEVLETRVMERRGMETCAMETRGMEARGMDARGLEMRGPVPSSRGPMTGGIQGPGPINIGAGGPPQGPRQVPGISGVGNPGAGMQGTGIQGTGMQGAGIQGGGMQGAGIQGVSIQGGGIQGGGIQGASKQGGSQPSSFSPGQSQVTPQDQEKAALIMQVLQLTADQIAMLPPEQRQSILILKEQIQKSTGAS
# UniProt P02511: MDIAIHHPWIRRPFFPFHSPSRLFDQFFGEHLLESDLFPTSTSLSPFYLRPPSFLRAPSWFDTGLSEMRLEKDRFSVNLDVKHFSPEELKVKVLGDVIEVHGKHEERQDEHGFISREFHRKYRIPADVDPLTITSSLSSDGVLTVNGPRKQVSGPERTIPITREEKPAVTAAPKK
# UniProt P16220: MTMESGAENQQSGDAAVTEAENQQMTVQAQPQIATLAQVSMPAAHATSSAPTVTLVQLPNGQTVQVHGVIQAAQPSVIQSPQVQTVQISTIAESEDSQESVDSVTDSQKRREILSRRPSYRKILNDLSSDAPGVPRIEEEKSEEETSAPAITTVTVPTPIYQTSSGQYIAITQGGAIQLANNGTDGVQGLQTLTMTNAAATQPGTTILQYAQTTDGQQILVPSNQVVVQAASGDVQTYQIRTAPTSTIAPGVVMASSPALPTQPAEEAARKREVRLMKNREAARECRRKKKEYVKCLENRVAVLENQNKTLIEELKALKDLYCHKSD
# UniProt Q13620, whole entry, looked up: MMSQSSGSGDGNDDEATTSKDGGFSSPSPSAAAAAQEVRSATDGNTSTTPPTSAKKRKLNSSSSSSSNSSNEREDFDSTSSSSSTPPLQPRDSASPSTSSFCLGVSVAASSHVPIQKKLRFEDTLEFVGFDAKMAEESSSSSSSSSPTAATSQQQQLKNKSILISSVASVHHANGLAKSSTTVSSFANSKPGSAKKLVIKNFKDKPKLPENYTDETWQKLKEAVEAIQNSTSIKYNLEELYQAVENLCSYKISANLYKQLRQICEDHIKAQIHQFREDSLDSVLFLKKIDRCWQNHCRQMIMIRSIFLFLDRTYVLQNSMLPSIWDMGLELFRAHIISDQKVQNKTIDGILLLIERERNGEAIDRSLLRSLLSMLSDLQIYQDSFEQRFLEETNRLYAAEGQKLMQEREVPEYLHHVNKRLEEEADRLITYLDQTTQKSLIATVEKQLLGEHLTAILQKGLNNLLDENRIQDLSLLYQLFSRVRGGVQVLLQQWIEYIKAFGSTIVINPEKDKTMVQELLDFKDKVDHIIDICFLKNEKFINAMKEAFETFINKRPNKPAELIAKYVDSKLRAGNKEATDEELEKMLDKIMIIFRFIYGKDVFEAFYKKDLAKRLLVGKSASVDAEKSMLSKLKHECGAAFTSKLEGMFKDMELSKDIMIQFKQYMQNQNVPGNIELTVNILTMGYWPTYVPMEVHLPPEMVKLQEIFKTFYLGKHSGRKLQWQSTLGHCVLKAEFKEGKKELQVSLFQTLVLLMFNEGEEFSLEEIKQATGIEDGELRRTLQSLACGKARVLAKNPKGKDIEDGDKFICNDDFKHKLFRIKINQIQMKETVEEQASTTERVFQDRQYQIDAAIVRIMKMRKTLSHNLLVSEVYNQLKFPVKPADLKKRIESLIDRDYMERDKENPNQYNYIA
# UniProt P01034: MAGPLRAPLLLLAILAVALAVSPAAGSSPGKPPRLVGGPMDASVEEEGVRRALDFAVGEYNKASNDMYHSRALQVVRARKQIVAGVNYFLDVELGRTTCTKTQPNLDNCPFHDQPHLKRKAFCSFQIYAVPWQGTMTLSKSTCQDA
# UniProt Q8TB03: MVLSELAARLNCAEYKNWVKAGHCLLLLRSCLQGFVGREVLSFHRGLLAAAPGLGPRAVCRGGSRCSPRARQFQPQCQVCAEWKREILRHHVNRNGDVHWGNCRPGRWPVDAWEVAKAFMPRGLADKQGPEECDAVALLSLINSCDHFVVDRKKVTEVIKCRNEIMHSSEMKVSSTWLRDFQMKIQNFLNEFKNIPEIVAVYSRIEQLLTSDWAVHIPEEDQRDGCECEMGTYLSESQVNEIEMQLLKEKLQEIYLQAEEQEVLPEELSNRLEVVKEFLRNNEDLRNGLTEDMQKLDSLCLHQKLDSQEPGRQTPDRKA
# UniProt Q9NRF8: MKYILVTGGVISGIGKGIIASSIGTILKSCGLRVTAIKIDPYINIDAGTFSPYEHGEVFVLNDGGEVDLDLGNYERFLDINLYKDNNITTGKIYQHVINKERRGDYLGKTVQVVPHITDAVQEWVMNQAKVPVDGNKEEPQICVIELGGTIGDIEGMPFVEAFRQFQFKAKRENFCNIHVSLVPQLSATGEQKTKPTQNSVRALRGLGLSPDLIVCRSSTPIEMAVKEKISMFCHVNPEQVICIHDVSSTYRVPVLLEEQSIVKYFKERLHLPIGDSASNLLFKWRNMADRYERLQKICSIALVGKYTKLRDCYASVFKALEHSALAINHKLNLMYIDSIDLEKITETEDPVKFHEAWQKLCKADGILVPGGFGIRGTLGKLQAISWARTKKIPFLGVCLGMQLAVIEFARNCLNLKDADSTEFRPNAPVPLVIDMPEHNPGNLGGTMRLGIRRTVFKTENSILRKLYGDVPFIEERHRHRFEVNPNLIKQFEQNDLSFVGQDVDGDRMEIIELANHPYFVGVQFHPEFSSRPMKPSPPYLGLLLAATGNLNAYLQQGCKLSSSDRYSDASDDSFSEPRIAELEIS
# UniProt A4D126: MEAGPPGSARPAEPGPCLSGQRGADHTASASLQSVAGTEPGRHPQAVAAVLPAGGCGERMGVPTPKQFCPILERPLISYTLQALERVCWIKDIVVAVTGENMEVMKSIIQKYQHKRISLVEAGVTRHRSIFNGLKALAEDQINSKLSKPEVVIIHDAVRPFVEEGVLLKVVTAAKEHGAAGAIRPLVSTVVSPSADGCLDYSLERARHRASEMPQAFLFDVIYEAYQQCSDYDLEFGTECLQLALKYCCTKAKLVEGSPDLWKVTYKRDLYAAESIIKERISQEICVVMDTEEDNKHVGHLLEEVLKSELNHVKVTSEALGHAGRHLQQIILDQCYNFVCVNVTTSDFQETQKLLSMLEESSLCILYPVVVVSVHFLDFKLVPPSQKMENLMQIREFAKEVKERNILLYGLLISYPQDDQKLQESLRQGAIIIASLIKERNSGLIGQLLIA
# UniProt Q96C57: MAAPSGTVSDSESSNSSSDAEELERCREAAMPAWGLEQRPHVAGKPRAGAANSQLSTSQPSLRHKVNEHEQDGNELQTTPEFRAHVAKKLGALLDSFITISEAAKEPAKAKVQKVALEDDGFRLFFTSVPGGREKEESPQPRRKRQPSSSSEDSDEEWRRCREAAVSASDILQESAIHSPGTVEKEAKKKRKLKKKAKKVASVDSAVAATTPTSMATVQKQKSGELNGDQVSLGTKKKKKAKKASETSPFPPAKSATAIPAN
# UniProt P46108: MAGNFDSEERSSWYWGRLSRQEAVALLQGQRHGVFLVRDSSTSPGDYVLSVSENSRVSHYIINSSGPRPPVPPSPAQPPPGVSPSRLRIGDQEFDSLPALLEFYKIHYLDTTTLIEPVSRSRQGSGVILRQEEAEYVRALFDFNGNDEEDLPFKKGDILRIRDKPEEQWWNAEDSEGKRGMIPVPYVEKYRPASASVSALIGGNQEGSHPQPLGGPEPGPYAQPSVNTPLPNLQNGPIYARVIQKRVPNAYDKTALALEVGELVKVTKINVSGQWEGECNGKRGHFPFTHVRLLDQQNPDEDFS
# This is one part of the list.
# Key:
# Assay in all cases: log2 fold change, soluble protein after heating vs DMSO (PISA); higher = thermal stabilisation; K562 lysate, 10 uM; active = over 0.2 and 3.5 SD of the protein, either way, in both replicates (recomputed)
# vemurafenib = compound: CCCS(=O)(=O)Nc1ccc(F)c(C(=O)c2c[nH]c3ncc(-c4ccc(Cl)cc4)cc23)c1F [vemurafenib]
# In short: (§1)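 To prepare the extract, K562 pellets were dounce-homogenised in PBS pH 7.4 with 1 mM MgCl2, giving crude material at 1 mg/mL protein. This was treated with 10 μM compound for 30 min, then heated in aliquots for 3 min over 48°C-58°C before pooling and addition of NP-40 to 0.5% at 4°C. Centrifugation at 21,000xg for 90 min left soluble protein in the supernatant, which TMTpro 16plex LC-MS/MS quantified with equalised channel sums. Results are log-two fold changes in thermal stability compared with solvent controls, from duplicates.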
# [1] = compound: CCCS(=O)(=O)Nc1ccc(F)c(C(=O)c2c[nH]c3ncc(Cl)cc23)c1F
# In short: as §1
# barasertib = compound: CCN(CCCOc1ccc2c(Nc3cc(CC(=O)Nc4cccc(F)c4)[nH]n3)ncnc2c1)CCOP(=O)(O)O [barasertib]
# In short: as §1
# [2] = compound: CC[C@@H]1C(=O)N(C)c2cnc(Nc3ccc(C(=O)NC4CCN(C)CC4)cc3OC)nc2N1C1CCCC1
# In short: as §1
# volasertib = compound: CC[C@@H]1C(=O)N(C)c2cnc(Nc3ccc(C(=O)N[C@H]4CC[C@H](N5CCN(CC6CC6)CC5)CC4)cc3OC)nc2N1C(C)C [volasertib]
# In short: as §1
# [3] = compound: CCn1c(C(=O)N(C2CC2)C2CC2)cc2c3c(ncn3C)c(Nc3cc(C)n(C)n3)nc21
# In short: as §1
# [4] = compound: CCn1cc(-c2ccnc3[nH]c(-c4cccc(CN(C)C)c4)cc23)c(-c2ccc(NC(=O)N(C)C)cc2)n1
# In short: as §1
# [5] = compound: CN1CCC(CNc2ccc3ncc(-c4cccc(OC(F)(F)F)c4)n3n2)CC1
# In short: as §1
# saracatinib = compound: CN1CCN(CCOc2cc(OC3CCOCC3)c3c(Nc4c(Cl)ccc5c4OCO5)ncnc3c2)CC1 [saracatinib]
# In short: as §1
# sotrastaurin = compound: CN1CCN(c2nc(C3=C(c4c[nH]c5ccccc45)C(=O)NC3=O)c3ccccc3n2)CC1 [sotrastaurin]
# In short: as §1
Target,log2 fold change (vemurafenib),log2 fold change [1],log2 fold change (barasertib),log2 fold change [2],log2 fold change (volasertib),log2 fold change [3],log2 fold change [4],log2 fold change [5],log2 fold change (saracatinib),log2 fold change (sotrastaurin)
CUL7 isoform 2 (UniProt Q14999),inactive: 0.036,inactive: 0.149,inactive: 0.076,inactive: -0.129,inactive: -0.172,inactive: 0.043,inactive: 0.038,inactive: -0.111,inactive: 0.034,inactive: -0.048
CTCF (UniProt P49711),inactive: 0.032,inactive: 0.01,inactive: -0.017,inactive: 0.063,inactive: 0,inactive: -0.003,inactive: 0.103,inactive: -0.084,inactive: 0,inactive: 0.019
CWC22 (UniProt Q9HCG8),inactive: 0.002,inactive: 0.045,inactive: 0.028,inactive: -0.209,inactive: -0.033,inactive: 0.017,active: 0.393,active: -0.273,inactive: -0.052,inactive: -0.013
CSTF2T (UniProt Q9H0L4),inactive: -0.002,inactive: 0.002,inactive: 0.074,inactive: 0.023,inactive: 0.011,inactive: 0.002,inactive: -0.012,inactive: 0.028,inactive: -0.004,inactive: -0.002
CTSZ (UniProt Q9UBR2),inactive: 0.014,inactive: -0.007,inactive: -0.022,inactive: -0.026,inactive: 0.014,inactive: 0.039,inactive: -0.084,inactive: 0.056,inactive: -0.102,inactive: 0.076
CRYAB (UniProt P02511),inactive: -0.054,inactive: 0.105,inactive: 0.017,inactive: 0.247,inactive: -0.187,inactive: -0.255,inactive: -0.117,inactive: 0.046,inactive: -0.07,inactive: 0.005
CREB1 (UniProt P16220),inactive: -0.045,inactive: -0.017,inactive: -0.048,inactive: -0.007,inactive: -0.021,inactive: 0.048,inactive: 0.045,inactive: 0.006,inactive: 0.112,inactive: 0.025
CTU2 (UniProt Q2VPK5),inactive: -0.056,inactive: -0.017,inactive: -0.003,inactive: -0.03,inactive: 0.007,inactive: 0.058,inactive: -0.048,inactive: 0.027,inactive: 0.007,inactive: 0.044
CTDP1 (UniProt Q9Y5B0),inactive: -0.027,inactive: 0.03,inactive: 0.036,inactive: -0.019,inactive: -0.014,inactive: 0.027,inactive: 0.09,inactive: 0.003,inactive: 0.013,inactive: 0.019
CUL4B (UniProt Q13620),inactive: -0.01,inactive: 0.005,inactive: 0.012,inactive: 0.036,inactive: 0.003,inactive: 0.004,inactive: -0.105,inactive: 0.074,inactive: 0.007,inactive: 0.003
CST3 (UniProt P01034),inactive: -0.076,inactive: -0.002,inactive: 0.053,inactive: -0.086,inactive: -0.004,inactive: 0.044,inactive: -0.074,inactive: 0.073,inactive: 0.031,inactive: 0.028
CXorf38 (UniProt Q8TB03),inactive: 0.017,inactive: -0.015,inactive: -0.024,inactive: 0.038,inactive: 0.013,inactive: -0.027,inactive: -0.059,inactive: 0.04,inactive: 0.105,inactive: 0.018
CS (UniProt O75390),inactive: -0.002,inactive: -0.001,inactive: -0.011,inactive: -0.008,inactive: 0.008,inactive: -0.005,inactive: 0.023,inactive: -0.033,inactive: -0.036,inactive: -0.013
CSNK2B (UniProt P67870),inactive: -0.042,inactive: 0.03,inactive: -0.032,inactive: -0.007,inactive: -0.038,inactive: 0.015,inactive: 0.01,inactive: 0.124,inactive: -0.066,inactive: -0.029
CUTA isoform 2 (UniProt O60888),inactive: 0.03,inactive: 0.029,inactive: 0.04,inactive: 0.077,inactive: 0.024,inactive: -0.008,inactive: -0.224,inactive: 0.186,inactive: 0.033,inactive: -0.066
CRKL (UniProt P46109),inactive: 0.005,inactive: -0.015,inactive: -0.042,inactive: 0.05,inactive: 0.031,inactive: -0.03,inactive: 0.014,inactive: 0.084,inactive: 0.014,inactive: 0.012
CTSC (UniProt P53634),inactive: -0.001,inactive: 0.012,inactive: -0.006,inactive: 0.062,inactive: -0.004,inactive: 0.011,inactive: -0.146,inactive: 0.09,inactive: -0.032,inactive: 0.036
CUL4A (UniProt Q13619),inactive: -0.017,inactive: 0.022,inactive: 0.017,inactive: 0.005,inactive: -0.031,inactive: -0.049,inactive: -0.035,inactive: 0.01,inactive: -0.01,inactive: 0
CTSL (UniProt P07711),inactive: -0.014,inactive: 0.001,inactive: -0.003,inactive: 0.051,inactive: 0.019,inactive: -0.022,inactive: -0.102,inactive: 0.022,inactive: -0.049,inactive: -0.049
CTPS2 (UniProt Q9NRF8),inactive: 0.002,inactive: 0.01,inactive: 0.015,inactive: -0.028,inactive: -0.009,inactive: 0.011,inactive: -0.041,inactive: 0.058,inactive: 0.012,inactive: -0.044
CRPPA (UniProt A4D126),inactive: -0.026,inactive: 0.012,inactive: 0,inactive: 0.025,inactive: 0.03,inactive: -0.001,inactive: -0.038,inactive: 0.035,inactive: -0.013,inactive: 0.041
CYCS (UniProt P99999),inactive: -0.011,inactive: -0.001,inactive: -0.01,inactive: 0.061,inactive: 0.041,inactive: 0.018,inactive: -0.025,inactive: 0.052,inactive: 0.008,inactive: -0.017
CWC15 (UniProt Q9P013),inactive: 0.011,inactive: -0.02,inactive: 0.004,inactive: 0.068,inactive: 0.073,inactive: -0.03,inactive: -0.033,inactive: -0.009,inactive: -0.026,inactive: -0.026
CYP20A1 (UniProt Q6UW02),inactive: -0.005,inactive: 0,inactive: 0.047,inactive: -0.075,inactive: -0.04,inactive: -0.018,inactive: -0.04,inactive: 0.006,inactive: 0.012,inactive: -0.004
CTBP1 (UniProt Q13363),inactive: 0.007,inactive: 0.022,inactive: 0.038,inactive: 0.031,inactive: 0.001,inactive: 0.02,inactive: -0.054,inactive: 0.019,inactive: -0.027,inactive: -0.08
CUSTOS (UniProt Q96C57),inactive: -0.051,inactive: 0.018,inactive: -0.056,inactive: 0.042,inactive: 0.016,inactive: -0.004,inactive: -0.01,inactive: 0.052,inactive: 0.01,inactive: 0.022
CRK (UniProt P46108),inactive: -0.017,inactive: -0.014,inactive: -0.033,inactive: 0.02,inactive: 0.006,inactive: 0.004,inactive: 0.111,inactive: 0.036,inactive: -0.012,inactive: 0.001
CYB5R1 (UniProt Q9UHQ9),inactive: -0.034,inactive: 0.031,inactive: 0.066,inactive: -0.044,inactive: -0.067,inactive: -0.031,inactive: 0.072,inactive: 0.053,inactive: 0.016,inactive: 0.007
CTH (UniProt P32929),inactive: 0.048,inactive: 0.018,inactive: -0.015,inactive: 0.028,inactive: 0.036,inactive: -0.026,inactive: -0.089,inactive: 0.062,inactive: -0.031,inactive: 0.003
CTSA (UniProt P10619),inactive: 0.025,inactive: 0.017,inactive: 0.048,inactive: -0.008,inactive: -0.071,inactive: -0.003,inactive: -0.002,inactive: -0.003,inactive: 0.001,inactive: -0.02

# Just log2 fold change [4] and log2 fold change (vemurafenib) (2 entries from above):
Target | log2 fold change [4] | log2 fold change (vemurafenib)
CTSL (UniProt P07711) | inactive: -0.102 | inactive: -0.014
CTPS2 (UniProt Q9NRF8) | inactive: -0.041 | inactive: 0.002
